By UniProt entry, the sequences of proteins in these tests, tags left out.
UniProt Q0JBA9, entry or part of it: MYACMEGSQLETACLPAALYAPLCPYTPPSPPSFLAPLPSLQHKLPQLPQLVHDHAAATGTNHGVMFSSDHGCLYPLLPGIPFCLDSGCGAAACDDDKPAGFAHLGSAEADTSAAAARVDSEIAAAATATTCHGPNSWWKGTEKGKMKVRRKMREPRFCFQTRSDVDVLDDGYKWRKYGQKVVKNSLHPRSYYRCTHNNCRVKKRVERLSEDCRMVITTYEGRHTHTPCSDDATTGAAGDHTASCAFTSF

The other results are listed elsewhere or left out.
The sequences below were run against OsWRKY34 (Oryza sativa, UniProt Q0JBA9 1-250) (assay: protein-binding microarray (RPBM); PBS, 2% BSA, 51.3 ng/ul salmon testes DNA, 50 uM zinc acetate, 200 nM TF, 25 C, 1 h; high values mean tight binding). Details: protein: recombinant; tags: N-terminal polyhistidine and DsRed monomer fusion (pET32a); label: CyDye5-dUTP incorporated in the synthesized complementary strand; 3' TTTTT single-stranded linker to array surface; dsDNA, one strand shown.
How it was run: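 Transcription factors were made in E. coli BL21-CodonPlus as N-terminal fusions to a polyhistidine tag and DsRed, then purified on Ni–NTA. After primer extension with Cy5-dUTP and blocking with 2% BSA, a custom Agilent array was exposed for 1 h at 25 °C to 200 nM protein in PBS, 2% BSA, salmon testes DNA and 50 µM zinc acetate. Washed arrays were scanned on an Axon 4000B, and the binding signal is per-feature fluorescence intensity in arbitrary units.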
For “AGTTTGGCCGCATTGGCGATCTTTCCTCTCTTGTACTACTCGGAGTCACCTAGTGCAG”, the binding signal was 9980 fluorescence intensity (a.u.).
With “TCTGTTATGCCATCTCAAAGCTTGATTGACCTTCACCGGCCGGAGTCACCTAGTGCAG” the binding signal was 8960 fluorescence intensity (a.u.).
With “TTTGTGCTGCGCATTCGCGTCAACACTCCCATTTATTATGCGGAGTCACCTAGTGCAG” the binding signal was 8250 fluorescence intensity (a.u.).
With “CCAAAATTGACTTTTATTCGTGTGCCAAATTTTTTTTTTACGGAGTCACCTAGTGCAG” the binding signal was 8520 fluorescence intensity (a.u.).
“ACCTGACGGCCCAACCAGGCGACCGCTCTCTCCGTTTTCCCGGAGTCACCTAGTGCAG” was tested, and the binding signal was 8070 fluorescence intensity (a.u.).
In the case of “CTATAATTCACCAACTCACTCTTACCCCTACATTACTCATCGGAGTCACCTAGTGCAG”, the binding signal is reported as 9360 fluorescence intensity (a.u.).
In the case of “TTCTCTTGGGGTTTGGCCGGTTGGGGAGTGAGCCGTTTGGCGGAGTCACCTAGTGCAG”, the binding signal is reported as 11000 fluorescence intensity (a.u.).
“GACTCTCTTGTATTGTCCATATTCATATATATATATGTTACGGAGTCACCTAGTGCAG” was tested, and the binding signal was 8140 fluorescence intensity (a.u.).
“GGACAAAGTTCACATGCTTACTATTCATTCTCCTACGTATCGGAGTCACCTAGTGCAG” was tested, and the binding signal was 10100 fluorescence intensity (a.u.).
In the case of “ACAAACTCTGCTTTCCGTGTCTAACATTTGACCGTCCGTCCGGAGTCACCTAGTGCAG”, the binding signal is reported as 8960 fluorescence intensity (a.u.).
For “TCCACGCTCGCCGACATCCCGGACCTCCACACCAAGTCCCCGGAGTCACCTAGTGCAG”, the binding signal was 8020 fluorescence intensity (a.u.).
“CCCTCATCGTGTCGATGCGTCGCTGCCTCGCTTTACCACTCGGAGTCACCTAGTGCAG” was tested, and the binding signal was 8210 fluorescence intensity (a.u.).
With “TTTAATAAATTCATCCCGCGGTTTCCAGGCAAGTTATTAACGGAGTCACCTAGTGCAG” the binding signal was 8680 fluorescence intensity (a.u.).
With “AGTAAAAAAACAACCATACTGTCTCGTCCTGCTCGTCTAACGGAGTCACCTAGTGCAG” the binding signal was 9060 fluorescence intensity (a.u.).
With “ATACGGGATCCTAGGGTAAAACTTGTGTATGGGATGTGTCCGGAGTCACCTAGTGCAG” the binding signal was 8260 fluorescence intensity (a.u.).
In the case of “GATTGTCATTTTCCATGATGTTTCTCGTGATCAAACGGACCGGAGTCACCTAGTGCAG”, the binding signal is reported as 11900 fluorescence intensity (a.u.).
For “CCTCTGCTACGATTCCGCGAATAATGGTCCGTGACATATCCGGAGTCACCTAGTGCAG”, the binding signal was 8200 fluorescence intensity (a.u.).
For “AATTGTTGGTTATCAGTTTCATGTTTCAATGGACACTATTCGGAGTCACCTAGTGCAG”, the binding signal was 8600 fluorescence intensity (a.u.).
For “GGGCTTGCGATCGTGTTGTGTTGGGTTGGGTCTTGGGTTTCGGAGTCACCTAGTGCAG”, the binding signal was 29400 fluorescence intensity (a.u.).
For “ACTATCTCGGTCTCAACATATAGCTATTTATGTCATTTTTCGGAGTCACCTAGTGCAG”, the binding signal was 12900 fluorescence intensity (a.u.).
“CTTCTTGCTCACCGCCGCGGCGGCGGCGGCCGCCATCGTCCGGAGTCACCTAGTGCAG” was tested, and the binding signal was 8880 fluorescence intensity (a.u.).
In the case of “TGGAGTGGAGTTTCGATAGGTGTGGCGGGGAGGGAGGGAGCGGAGTCACCTAGTGCAG”, the binding signal is reported as 19800 fluorescence intensity (a.u.).
In the case of “TTGAATAATTGTGTTGATGTAATATGCTCTTGTATTGGGGCGGAGTCACCTAGTGCAG”, the binding signal is reported as 8710 fluorescence intensity (a.u.).
In the case of “GAGTATGGTAGATGGTGTCATGATCTCACGCCGTGTCTATCGGAGTCACCTAGTGCAG”, the binding signal is reported as 9970 fluorescence intensity (a.u.).
For “CCAAAGCACCAATCATCTAGCTACTTCTATGCTTTCTTCACGGAGTCACCTAGTGCAG”, the binding signal was 11600 fluorescence intensity (a.u.).
For “ACTTATCCATCATCAGATCATTTATGCCATGAACTCAAGACGGAGTCACCTAGTGCAG”, the binding signal was 9690 fluorescence intensity (a.u.).
In the case of “CCTTTTTCTTTTCTTTGTTGTTGTGCAAATACTGTATAGTCGGAGTCACCTAGTGCAG”, the binding signal is reported as 10000 fluorescence intensity (a.u.).
“TTTCTCTTTGCACCCTAGCCTCATGTTCTTCTTCTTCCTCCGGAGTCACCTAGTGCAG” was tested, and the binding signal was 8680 fluorescence intensity (a.u.).
In the case of “CAGATGTCAGTGATGTTGTAGGGTCAGAGGGTAGGTTATTCGGAGTCACCTAGTGCAG”, the binding signal is reported as 9240 fluorescence intensity (a.u.).
“TGCCGCTTGCGTAACTACTTAATTACCCGTATAGCCCATTCGGAGTCACCTAGTGCAG” was tested, and the binding signal was 9080 fluorescence intensity (a.u.).
“GCATTGTTTCTTCAGTCTACCTGTTGTCTCGTTGTATGCTCGGAGTCACCTAGTGCAG” was tested, and the binding signal was 9480 fluorescence intensity (a.u.).
“AACGGTTGTGACTACCCTCAGTCCGTCGTCTAAGTCAAATCGGAGTCACCTAGTGCAG” was tested, and the binding signal was 8460 fluorescence intensity (a.u.).
For “GGCTTGAATAAAGGTGTGTTTGGTTGGGTGGATGGAGCATCGGAGTCACCTAGTGCAG”, the binding signal was 8270 fluorescence intensity (a.u.).
“GCACCGTATTTTTGTTTGAAATTATATTTTTCAGAGCTTTCGGAGTCACCTAGTGCAG” was tested, and the binding signal was 10100 fluorescence intensity (a.u.).
With “TGTCGTTGCCGTTCCAAGTGCGCGGCGTGGTCTCCGATGCCGGAGTCACCTAGTGCAG” the binding signal was 8890 fluorescence intensity (a.u.).
For “TATATGCCTACTTTGTGTCCCTTACTTTGTCTGTGTAAACCGGAGTCACCTAGTGCAG”, the binding signal was 9440 fluorescence intensity (a.u.).
With “GGGCATGTATTGTGGATTATTTTGTGAATGATTTGCAGATCGGAGTCACCTAGTGCAG” the binding signal was 10600 fluorescence intensity (a.u.).
“TCCACCTTTTCATCAATATAGTCATGCATTAATACAGTCACGGAGTCACCTAGTGCAG” was tested, and the binding signal was 8670 fluorescence intensity (a.u.).
“ATACCAGTATTATTTTACCACGCCACTTTGTCATGGCAACCGGAGTCACCTAGTGCAG” was tested, and the binding signal was 10400 fluorescence intensity (a.u.).
“TAAACATATATTAAAAAGTCAACGGTGTCAAATATGTTGACGGAGTCACCTAGTGCAG” was tested, and the binding signal was 11900 fluorescence intensity (a.u.).
“CCATTAGTAAGTTCTCTCGTGGCCCAATACTCTCTTGATGCGGAGTCACCTAGTGCAG” was tested, and the binding signal was 8840 fluorescence intensity (a.u.).
“CTTTGTTTTTTACTCACTCCTTGAGTGGGCCGGCCTTAATCGGAGTCACCTAGTGCAG” was tested, and the binding signal was 9690 fluorescence intensity (a.u.).
